Changes are numbered by the printed parent chain. No constants are given. Whether binding was seen depends on the method and setting. Binding seen in cells or lysates may run through a third protein. A yes stands for co-enrichment or nearness to the bait. Other partners may have been found. Where a sequence is shown, tags or fusion partners need not be part of it.
Legend:
Experiment in all cases: affinity purification with mass spectrometry; crude mitochondria of rescue cell lines cross-linked with 0.5 mM DSSO (1 h, RT), quenched with Tris, solubilised with digitonin (6 g/g); FLAG immunoprecipitation of RTN4IP1-FLAG on magnetic anti-FLAG beads, on-bead tryptic digest, LC-MS; compared with WT(+GFP) mitochondria
[1] = target: T1, RTN4IP1-FLAG G215A (human) (UniProt Q8WWV3)
T1 sequence: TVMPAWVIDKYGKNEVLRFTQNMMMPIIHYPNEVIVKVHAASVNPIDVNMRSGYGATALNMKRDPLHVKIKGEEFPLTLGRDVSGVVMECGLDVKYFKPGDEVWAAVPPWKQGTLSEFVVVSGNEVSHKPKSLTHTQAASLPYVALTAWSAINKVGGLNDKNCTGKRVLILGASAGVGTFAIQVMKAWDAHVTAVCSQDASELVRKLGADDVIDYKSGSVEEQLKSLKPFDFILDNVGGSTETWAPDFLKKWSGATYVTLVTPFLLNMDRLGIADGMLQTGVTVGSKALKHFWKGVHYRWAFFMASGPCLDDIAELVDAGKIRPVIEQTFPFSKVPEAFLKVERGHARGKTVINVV

The chains behind the UniProt entries cited, without tags or fusion partners. Residues count along the entry.
UniProt P19404, residues 33-249: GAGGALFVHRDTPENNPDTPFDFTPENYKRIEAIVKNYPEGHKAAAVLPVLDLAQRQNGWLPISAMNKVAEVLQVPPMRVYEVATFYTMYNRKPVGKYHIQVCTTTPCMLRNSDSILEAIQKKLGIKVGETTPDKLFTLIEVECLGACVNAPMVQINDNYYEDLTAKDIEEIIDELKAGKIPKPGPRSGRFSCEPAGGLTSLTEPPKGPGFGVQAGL
UniProt P56181, residues 35-108: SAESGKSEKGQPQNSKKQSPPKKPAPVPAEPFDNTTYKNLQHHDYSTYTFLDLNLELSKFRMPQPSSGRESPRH

[2] = target: T2, RTN4IP1-FLAG WT (Reticulon-4-interacting protein 1) (human) (UniProt Q8WWV3)
T2 sequence: T1 sequence with A175G

[3] = target: T3, RTN4IP1-FLAG R103H (human) (UniProt Q8WWV3)
T3 sequence: T1 sequence with R63H, A175G

Row | binding [1] | binding [2] | binding [3] | Substance
1 | binds | binds | binds | NDUFV2 (CI N-module subunit) (from UniProt P19404 33-249)
2 | binds | binds | binds | NDUFV3 (CI N-module subunit) (from UniProt P56181 35-108)

Reference: publication PMC12489013
